# From the supplement of paper PMC6411743
# Sequences of proteins named here, by UniProt entry; tags and fusion partners are left off. A change or cut given only in a name is not applied to a line headed by its entry.
# UniProt A6NHG4: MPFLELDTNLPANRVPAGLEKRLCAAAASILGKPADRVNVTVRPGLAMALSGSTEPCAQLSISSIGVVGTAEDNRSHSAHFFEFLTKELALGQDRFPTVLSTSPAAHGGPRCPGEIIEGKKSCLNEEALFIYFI
# UniProt Q9BPX6: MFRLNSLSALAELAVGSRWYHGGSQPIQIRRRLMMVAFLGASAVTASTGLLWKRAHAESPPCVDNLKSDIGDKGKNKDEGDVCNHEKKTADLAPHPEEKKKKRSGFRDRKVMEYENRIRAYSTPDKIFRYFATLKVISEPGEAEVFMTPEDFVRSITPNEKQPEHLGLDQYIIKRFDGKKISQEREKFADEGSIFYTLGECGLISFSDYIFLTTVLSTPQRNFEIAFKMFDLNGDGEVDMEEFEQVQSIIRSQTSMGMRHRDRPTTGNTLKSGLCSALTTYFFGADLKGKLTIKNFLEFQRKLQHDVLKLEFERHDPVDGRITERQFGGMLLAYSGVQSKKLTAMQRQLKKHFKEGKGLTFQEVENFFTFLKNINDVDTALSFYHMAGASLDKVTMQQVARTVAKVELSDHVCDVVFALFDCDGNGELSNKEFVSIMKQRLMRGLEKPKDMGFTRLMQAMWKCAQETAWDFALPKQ
# UniProt Q9BUN8: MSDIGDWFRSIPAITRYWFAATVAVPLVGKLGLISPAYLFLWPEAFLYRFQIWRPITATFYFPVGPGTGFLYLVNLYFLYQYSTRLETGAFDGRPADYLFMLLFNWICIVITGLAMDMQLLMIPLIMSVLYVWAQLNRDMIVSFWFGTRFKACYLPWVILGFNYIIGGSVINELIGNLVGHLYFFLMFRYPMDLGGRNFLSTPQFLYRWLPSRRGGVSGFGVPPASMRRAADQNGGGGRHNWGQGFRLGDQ
# UniProt Q9NZ72: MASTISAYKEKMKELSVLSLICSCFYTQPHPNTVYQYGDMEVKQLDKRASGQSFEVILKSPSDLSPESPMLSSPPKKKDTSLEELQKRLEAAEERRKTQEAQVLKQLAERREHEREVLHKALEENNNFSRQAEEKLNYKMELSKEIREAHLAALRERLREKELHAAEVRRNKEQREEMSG
# UniProt Q8N3P4: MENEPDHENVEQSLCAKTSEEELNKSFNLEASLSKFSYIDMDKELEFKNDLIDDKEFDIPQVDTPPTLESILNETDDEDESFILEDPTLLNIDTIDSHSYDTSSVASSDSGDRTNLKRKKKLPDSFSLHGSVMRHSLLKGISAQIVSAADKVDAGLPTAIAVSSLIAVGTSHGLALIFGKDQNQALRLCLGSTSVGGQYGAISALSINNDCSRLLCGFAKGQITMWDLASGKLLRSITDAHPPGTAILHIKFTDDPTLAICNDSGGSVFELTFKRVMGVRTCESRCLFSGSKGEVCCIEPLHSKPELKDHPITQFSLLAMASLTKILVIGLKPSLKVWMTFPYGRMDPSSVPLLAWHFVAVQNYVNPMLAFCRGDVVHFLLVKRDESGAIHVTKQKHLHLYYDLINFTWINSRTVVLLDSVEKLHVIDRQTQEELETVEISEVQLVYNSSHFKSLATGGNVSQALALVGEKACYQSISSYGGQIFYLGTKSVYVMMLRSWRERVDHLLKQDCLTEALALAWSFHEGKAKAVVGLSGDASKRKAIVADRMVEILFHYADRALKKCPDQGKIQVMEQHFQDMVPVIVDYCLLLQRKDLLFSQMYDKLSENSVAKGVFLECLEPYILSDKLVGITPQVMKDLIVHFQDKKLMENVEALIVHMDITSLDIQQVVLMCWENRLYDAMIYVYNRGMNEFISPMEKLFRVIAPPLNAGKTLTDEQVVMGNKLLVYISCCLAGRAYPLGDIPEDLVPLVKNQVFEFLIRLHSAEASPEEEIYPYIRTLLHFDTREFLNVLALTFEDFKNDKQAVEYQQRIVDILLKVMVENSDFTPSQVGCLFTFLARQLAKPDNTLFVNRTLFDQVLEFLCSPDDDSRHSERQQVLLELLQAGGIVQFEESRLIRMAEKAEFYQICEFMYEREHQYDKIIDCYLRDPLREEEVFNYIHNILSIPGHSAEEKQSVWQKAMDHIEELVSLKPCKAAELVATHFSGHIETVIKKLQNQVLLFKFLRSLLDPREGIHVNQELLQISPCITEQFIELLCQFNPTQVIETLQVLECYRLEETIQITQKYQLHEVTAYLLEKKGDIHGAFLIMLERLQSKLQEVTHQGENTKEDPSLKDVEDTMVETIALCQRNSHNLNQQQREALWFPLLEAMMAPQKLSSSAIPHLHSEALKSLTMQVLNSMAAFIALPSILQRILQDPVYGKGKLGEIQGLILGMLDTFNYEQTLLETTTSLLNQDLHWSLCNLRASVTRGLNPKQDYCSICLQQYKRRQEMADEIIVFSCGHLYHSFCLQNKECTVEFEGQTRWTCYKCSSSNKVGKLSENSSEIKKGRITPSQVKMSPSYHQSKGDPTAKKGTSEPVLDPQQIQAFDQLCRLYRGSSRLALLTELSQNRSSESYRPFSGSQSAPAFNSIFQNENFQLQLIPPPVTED
# UniProt Q96HP4: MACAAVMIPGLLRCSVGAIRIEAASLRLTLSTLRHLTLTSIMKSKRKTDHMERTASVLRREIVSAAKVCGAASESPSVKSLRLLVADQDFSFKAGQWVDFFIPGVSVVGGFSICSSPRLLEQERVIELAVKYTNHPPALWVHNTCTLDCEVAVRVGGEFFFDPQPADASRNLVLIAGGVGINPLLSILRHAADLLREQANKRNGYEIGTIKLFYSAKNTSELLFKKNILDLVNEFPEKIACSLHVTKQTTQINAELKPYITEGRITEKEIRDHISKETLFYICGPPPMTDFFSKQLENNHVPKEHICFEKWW
# UniProt Q13454: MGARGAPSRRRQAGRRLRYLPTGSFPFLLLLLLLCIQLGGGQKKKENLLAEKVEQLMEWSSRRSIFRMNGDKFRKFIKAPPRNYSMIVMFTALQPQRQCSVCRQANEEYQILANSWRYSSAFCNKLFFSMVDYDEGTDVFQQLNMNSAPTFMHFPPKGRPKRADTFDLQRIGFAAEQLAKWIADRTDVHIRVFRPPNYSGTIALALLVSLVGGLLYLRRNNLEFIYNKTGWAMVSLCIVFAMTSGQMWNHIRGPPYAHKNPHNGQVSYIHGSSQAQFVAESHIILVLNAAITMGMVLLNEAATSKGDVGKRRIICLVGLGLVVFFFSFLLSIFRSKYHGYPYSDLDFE
# UniProt Q8N4C6: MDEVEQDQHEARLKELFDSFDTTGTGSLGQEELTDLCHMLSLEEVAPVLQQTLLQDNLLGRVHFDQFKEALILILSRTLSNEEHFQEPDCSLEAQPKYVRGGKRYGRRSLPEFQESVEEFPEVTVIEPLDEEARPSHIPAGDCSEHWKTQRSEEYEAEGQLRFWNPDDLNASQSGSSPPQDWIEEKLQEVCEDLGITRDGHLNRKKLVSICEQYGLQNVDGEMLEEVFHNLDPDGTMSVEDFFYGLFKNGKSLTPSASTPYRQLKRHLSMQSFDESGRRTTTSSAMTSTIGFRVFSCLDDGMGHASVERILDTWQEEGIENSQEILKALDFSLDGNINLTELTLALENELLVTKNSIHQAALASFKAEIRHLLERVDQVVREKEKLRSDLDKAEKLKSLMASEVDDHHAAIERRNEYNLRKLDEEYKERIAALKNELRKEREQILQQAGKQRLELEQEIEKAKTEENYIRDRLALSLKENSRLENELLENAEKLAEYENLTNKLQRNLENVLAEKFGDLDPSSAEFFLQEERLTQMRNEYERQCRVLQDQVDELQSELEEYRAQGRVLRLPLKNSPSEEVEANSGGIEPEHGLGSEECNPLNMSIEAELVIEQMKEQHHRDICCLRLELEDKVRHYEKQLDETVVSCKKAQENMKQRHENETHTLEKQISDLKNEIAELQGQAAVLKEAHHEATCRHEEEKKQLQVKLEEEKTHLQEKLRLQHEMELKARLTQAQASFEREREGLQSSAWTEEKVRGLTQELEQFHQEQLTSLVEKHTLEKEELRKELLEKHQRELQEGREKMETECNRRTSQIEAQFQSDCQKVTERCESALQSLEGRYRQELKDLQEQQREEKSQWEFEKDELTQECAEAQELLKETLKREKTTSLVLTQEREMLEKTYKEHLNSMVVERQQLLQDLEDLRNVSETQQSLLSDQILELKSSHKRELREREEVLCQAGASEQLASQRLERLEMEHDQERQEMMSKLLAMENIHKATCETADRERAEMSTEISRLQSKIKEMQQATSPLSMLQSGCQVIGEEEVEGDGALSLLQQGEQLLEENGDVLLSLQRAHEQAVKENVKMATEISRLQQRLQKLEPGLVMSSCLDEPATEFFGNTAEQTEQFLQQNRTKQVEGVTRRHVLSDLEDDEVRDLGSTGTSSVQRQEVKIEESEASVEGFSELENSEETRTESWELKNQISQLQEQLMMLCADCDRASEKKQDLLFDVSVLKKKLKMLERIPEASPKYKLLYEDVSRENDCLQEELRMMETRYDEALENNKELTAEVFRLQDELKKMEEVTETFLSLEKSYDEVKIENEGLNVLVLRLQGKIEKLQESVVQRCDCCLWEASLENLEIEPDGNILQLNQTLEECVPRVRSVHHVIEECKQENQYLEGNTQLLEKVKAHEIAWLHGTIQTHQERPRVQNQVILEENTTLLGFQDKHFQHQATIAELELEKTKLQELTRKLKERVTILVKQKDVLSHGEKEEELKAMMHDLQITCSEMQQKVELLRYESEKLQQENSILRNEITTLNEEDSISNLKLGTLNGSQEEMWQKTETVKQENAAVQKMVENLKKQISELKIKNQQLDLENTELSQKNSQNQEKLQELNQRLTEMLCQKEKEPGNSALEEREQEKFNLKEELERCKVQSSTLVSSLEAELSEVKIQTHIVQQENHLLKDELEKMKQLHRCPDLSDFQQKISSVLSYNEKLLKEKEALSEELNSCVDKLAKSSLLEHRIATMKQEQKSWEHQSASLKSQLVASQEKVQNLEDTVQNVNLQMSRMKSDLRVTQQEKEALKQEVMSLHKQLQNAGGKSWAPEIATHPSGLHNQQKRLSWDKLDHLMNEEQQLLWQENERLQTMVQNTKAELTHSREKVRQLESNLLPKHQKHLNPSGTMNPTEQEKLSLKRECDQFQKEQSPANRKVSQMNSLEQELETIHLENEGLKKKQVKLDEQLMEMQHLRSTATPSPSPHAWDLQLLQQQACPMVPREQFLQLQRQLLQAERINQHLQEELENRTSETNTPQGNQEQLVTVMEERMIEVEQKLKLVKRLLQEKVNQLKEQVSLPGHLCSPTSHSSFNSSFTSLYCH
# UniProt O43676, whole entry: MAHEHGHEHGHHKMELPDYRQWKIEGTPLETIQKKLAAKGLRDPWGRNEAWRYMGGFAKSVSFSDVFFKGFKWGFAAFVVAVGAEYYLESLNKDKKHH
# UniProt Q9UKS7: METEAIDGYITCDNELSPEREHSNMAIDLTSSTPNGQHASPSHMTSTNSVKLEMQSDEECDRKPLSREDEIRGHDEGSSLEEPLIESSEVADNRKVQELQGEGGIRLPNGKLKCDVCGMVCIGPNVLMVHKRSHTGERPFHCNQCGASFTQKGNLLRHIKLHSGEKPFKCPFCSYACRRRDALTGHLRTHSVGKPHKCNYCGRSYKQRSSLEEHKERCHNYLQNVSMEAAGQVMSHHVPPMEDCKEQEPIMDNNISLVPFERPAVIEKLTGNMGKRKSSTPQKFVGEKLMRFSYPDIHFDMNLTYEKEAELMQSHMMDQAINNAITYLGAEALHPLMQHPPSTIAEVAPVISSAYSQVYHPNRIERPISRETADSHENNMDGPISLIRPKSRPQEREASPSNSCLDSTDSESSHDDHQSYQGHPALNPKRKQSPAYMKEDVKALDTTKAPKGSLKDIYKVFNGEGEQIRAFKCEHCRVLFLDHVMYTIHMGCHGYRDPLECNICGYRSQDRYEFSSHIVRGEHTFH
# UniProt O75955: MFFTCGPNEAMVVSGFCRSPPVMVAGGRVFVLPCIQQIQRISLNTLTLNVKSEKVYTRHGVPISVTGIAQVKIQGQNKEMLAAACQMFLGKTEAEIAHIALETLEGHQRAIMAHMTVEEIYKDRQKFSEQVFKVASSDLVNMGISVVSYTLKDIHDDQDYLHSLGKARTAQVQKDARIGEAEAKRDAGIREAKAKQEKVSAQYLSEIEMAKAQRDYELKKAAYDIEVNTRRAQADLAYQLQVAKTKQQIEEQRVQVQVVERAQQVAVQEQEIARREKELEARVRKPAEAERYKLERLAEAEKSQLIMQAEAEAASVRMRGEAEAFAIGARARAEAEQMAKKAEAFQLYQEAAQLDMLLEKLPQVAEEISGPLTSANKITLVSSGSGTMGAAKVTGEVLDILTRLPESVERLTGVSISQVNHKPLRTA
# UniProt Q8WV99: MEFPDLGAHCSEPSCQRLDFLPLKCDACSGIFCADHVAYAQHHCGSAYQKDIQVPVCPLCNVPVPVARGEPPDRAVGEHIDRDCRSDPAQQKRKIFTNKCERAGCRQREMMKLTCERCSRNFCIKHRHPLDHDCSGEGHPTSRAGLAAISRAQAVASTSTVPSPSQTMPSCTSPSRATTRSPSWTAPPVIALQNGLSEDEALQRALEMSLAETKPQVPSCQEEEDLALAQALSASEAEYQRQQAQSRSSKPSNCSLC
# ± gives the standard deviation of the averaged measurements. This is a selection; strong and weak results do not stand in their true shares. Most values lie at the level of the controls, where differences are scatter.
# Compound: Nc1ncnc2c1ncn2[C@@H]1O[C@H](COP(=O)(O)OP(=O)(O)OP(=O)(O)O)[C@@H](O)[C@H]1O [adenosine triphosphate]
# Assay: NP40-soluble protein abundance relative to vehicle (solubility fold change) (ratio); higher = more soluble protein in presence of ATP
# Summary of the method: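 Values are fold changes against the detergent-processed vehicle, based on vsn-normalised intensities. Jurkat crude lysate was treated at eight concentrations from 0.1 to 10 mM (10 min at room temperature, then 3 min at 37 °C), solubilised with 0.8% NP40 and benzonase, ultracentrifuged and analysed by TMT-labelled LC-MS/MS over three independent experiments.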
Target,NP40-soluble protein abundance (concentration: 0.1mM),NP40-soluble protein abundance (concentration: 0.5mM),NP40-soluble protein abundance (concentration: 1mM),NP40-soluble protein abundance (concentration: 2mM),NP40-soluble protein abundance (concentration: 4mM),NP40-soluble protein abundance (concentration: 6mM),NP40-soluble protein abundance (concentration: 8mM),NP40-soluble protein abundance (concentration: 10mM)
A6NHG4 and related entries (UniProt P30046+B5MC82+A6NHG4),1.023 ± 0.0049,1.02 ± 0.02,–,–,–,–,–,–
A0A0U1RRK1|F6XEV2 and related entries (UniProt Q9BPX6),1.01 ± 0.048,1.02 ± 0.064,1.01 ± 0.073,1.01 ± 0.045,1.04 ± 0.038,1.05 ± 0.067,1.07 ± 0.066,1.08 ± 0.058
B4E1G1 and related entries (UniProt Q9BUN8),1.01 ± 0.015,1.02 ± 0.049,0.948 ± 0.084,0.979 ± 0.12,0.989 ± 0.083,0.975 ± 0.1,0.955 ± 0.021,1 ± 0.056
B4DZG1 and related entries (UniProt Q9Y483),1.03 ± 0.012,1.14 ± 0.051,1.19 ± 0.023,1.25 ± 0.027,1.36 ± 0.057,1.41 ± 0.082,1.5 ± 0.032,1.56 ± 0.049
C9J381 and related entries (UniProt P20839),0.954 ± 0.031,1.03 ± 0.05,0.999 ± 0.049,0.9672 ± 0.0062,0.933 ± 0.018,0.695 ± 0.051,0.61 ± 0.018,0.581 ± 0.033
A0A0J9YW36|Q9NZ72 and related entries (UniProt Q9NZ72),0.929 ± 0.12,0.902 ± 0.04,1.03 ± 0.25,1.21 ± 0.52,0.979 ± 0.12,1.18 ± 0.36,0.945 ± 0.1,0.863 ± 0.05
B4DHE8 and related entries (UniProt Q96DH6),1.04 ± 0.072,1.04 ± 0.08,1.02 ± 0.045,1.02 ± 0.058,0.994 ± 0.065,0.993 ± 0.08,0.983 ± 0.071,0.972 ± 0.079
C9JJN9 and related entries (UniProt Q8N3P4),1.02 ± 0.063,1.04 ± 0.038,1.01 ± 0.053,0.984 ± 0.04,0.994 ± 0.068,0.9606 ± 0.0047,0.955 ± 0.039,0.979 ± 0.023
C9JLB7 and related entries (UniProt Q96HP4),1.04 ± 0.085,1.14 ± 0.095,1.09 ± 0.083,1.1 ± 0.1,1.06 ± 0.075,1.12 ± 0.17,1.17 ± 0.14,1.05 ± 0.042
B7ZBA0 and related entries (UniProt Q8NI27),1.1 ± 0.075,1.4 ± 0.12,1.52 ± 0.091,1.62 ± 0.074,1.89 ± 0.076,2.09 ± 0.2,2.4 ± 0.17,2.4 ± 0.21
B4DT96 and related entries (UniProt O15504),1.032 ± 0.0079,0.945 ± 0.11,0.985 ± 0.095,1.21 ± 0.19,1.29 ± 0.17,1.43 ± 0.42,1.42 ± 0.26,1.77 ± 0.49
D6RA37 and related entries (UniProt Q13454),1.03 ± 0.061,0.993 ± 0.015,–,–,–,–,–,–
C9J066 and related entries (UniProt Q8N4C6),1.04 ± 0.059,1.05 ± 0.051,–,–,–,–,–,–
C9JKQ2 and related entries (UniProt O43676),0.906 ± 0.049,0.93 ± 0.074,0.921 ± 0.053,0.903 ± 0.08,0.867 ± 0.032,0.908 ± 0.048,0.862 ± 0.04,0.868 ± 0.042
B4DWF2 and related entries (UniProt Q9UKS7),0.986 ± 0.073,1.02 ± 0.046,1.02 ± 0.062,1.03 ± 0.072,1.04 ± 0.061,1.11 ± 0.089,1.1 ± 0.061,1.2 ± 0.066
A2ABJ5 and related entries (UniProt O75955),1.01 ± 0.028,0.995 ± 0.04,1.03 ± 0.047,0.948 ± 0.029,0.926 ± 0.012,0.925 ± 0.11,0.931 ± 0.071,0.916 ± 0.052
B4DEN4 and related entries (UniProt Q8WV99),0.983 ± 0.048,0.946 ± 0.026,0.955 ± 0.084,0.953 ± 0.046,0.943 ± 0.059,0.958 ± 0.066,0.91 ± 0.037,0.902 ± 0.062

# Reformatted: entries from further up
Target	NP40-soluble protein abundance (concentration: 0.1mM)	NP40-soluble protein abundance (concentration: 0.5mM)	NP40-soluble protein abundance (concentration: 1mM)	NP40-soluble protein abundance (concentration: 2mM)	NP40-soluble protein abundance (concentration: 4mM)	NP40-soluble protein abundance (concentration: 6mM)	NP40-soluble protein abundance (concentration: 8mM)	NP40-soluble protein abundance (concentration: 10mM)
A0A0J9YW36|Q9NZ72 and related entries (UniProt Q9NZ72)	0.929 ± 0.12	0.902 ± 0.04	1.03 ± 0.25	1.21 ± 0.52	0.979 ± 0.12	1.18 ± 0.36	0.945 ± 0.1	0.863 ± 0.05
B4DHE8 and related entries (UniProt Q96DH6)	1.04 ± 0.072	1.04 ± 0.08	1.02 ± 0.045	1.02 ± 0.058	0.994 ± 0.065	0.993 ± 0.08	0.983 ± 0.071	0.972 ± 0.079
